Assay results reported in article PMC6756063, “TRiC/CCT chaperonins are essential for organ growth by interacting with insulin/TOR signaling in Drosophila” (Oncogene, 2019).
Results are given in words; binding and its absence hold for the method and conditions named. Binding calls can cover weak binding; strength is not graded here. Where a sequence is shown, tags or fusion partners need not be part of it.

Tests used:
[1] = molecular target: MBP-S6K with both VHL-like regions deleted (Drosophila); test: pull-down; MBP-pulldown of MBP-tagged bait with GST-CCT4; pulldown buffer 20 mM Tris pH 7.5, 150 mM NaCl, 0.5 mM EDTA, 10% glycerol, 0.1% Triton X-100, 1 mM DTT; blots with anti-MBP and anti-GST; both purified
[2] = molecular target: MBP-S6K (Drosophila); test: as above

B1: GST-CCT4 (protein, UniProt Q9VK69 1-533)
chain: MAPKAAAVNIKPTAKAFKDKSKPTDVRLSNIQAAKAVSDAIRTSLGPRGMDKMIQAGNGEVSITNDGATILKQMNVLHPAAKMLVELSRAQDVAAGDGTTSVVVIAGALLEACEKLLQKGLHPTAISDSFQRCSNKAVEILKQMSTPIELDDRETLIKSASTSLNSKVVSQQSSLLAPIAVDAVLKVTDPGKETSVDLKNIKVISSLGGTVEDTELVDGLVFTCRSAGSNAPKRIEKAKIGLIQFCISAPKTDMDHNVIVSDYAAMDRVLKEERSYILNIVKQIKKSGCNVLLVQKSILRDAVSDLAQHFLDKIKCMVVKDVEREDIEFVCKTLHCRPIASLDHFTAENLSSADLVEEVASGTNKFVKITGIQNMGRTVSIICRGSNKLVLEEAARSLHDALCVVRCLVKLRAQIVGGGAPEIEMALQLAALAQTVEGVDAYCFRAFADALEVIPSTLAENAGLNPIATVTELRNRHAQGEKNAGINVRKGAITDIFAENVVQPLLVSISSITLATETIRSILKIDDIVNTFS
Question: With B1 as the binder, how does the binding [1] read?
Answer: binds

Question: What about the binding [2] of the same binder?
Answer: binds
